Assay results taken from US20220186227A1, “Therapeutic Targets for Oncogenic KRAS-Dependent Cancers” (University of Massachusetts, priority 2019, published 2022).
For at least one compound, name, drawing or mass did not settle the structure.

Key:
[1] = system: H358 human lung cancer cells (heterozygous KRAS(G12C)); test: Cell proliferation assay in KRAS-dependent H358 cells; assay type: cell-based; conditions: bicalutamide 20, 40, 60, 80 μM or apalutamide 20, 40, 60 μM for 4 days (FIG. 5D, E)
Description: (§1) FIG. 4. ShRNA-mediated knockdown of a KRAS-EF reduces proliferation of KRAS-dependent H358 human lung cancer cells. A549 and H358 cells were infected with lentiviruses expressing a NS, KRAS or KRAS-EF shRNA, and 24 hours after infection cells were treated with puromycin for three days. Cells were replenished with complete media without puromycin and cultured for two more days, and then stained with crystal violet.
(§2) FIGS. 5A-E. Small molecule inhibitors targeting AR, CLK2, PKCy, SENP7 and SOS1, reduce KRAS protein levels in A549 cells, and AR antagonists reduce proliferation of KRAS-dependent H358 human lung cancer cells. (A) Immunoblot analysis monitoring KRAS levels in A549 cells treated with the AR antagonist bicalutamide (0, 20, 80 μM for 3 days), the CLK2 inhibitor TG003 (50, 100, 200 μM for 2 days), the PKCy inhibitor Go 6983 (20, 40 80 μM for 2 days), the SENP7 inhibitor NSC 45551 (50, 100, 200 μM for 4 days) or the SOS1 inhibitor NSC 658497 (10, 20 μM for 4 days). […] Error bars indicate SD.

A549 cells = test: Cell proliferation assay in KRAS-independent A549 cells; assay type: cell-based, human; conditions: bicalutamide 20, 40, 60, 80 μM or apalutamide 20, 40, 60 μM for 4 days (FIG. 5D, E)
Description: as §1, §2

[2] = system: KRAS protein levels in A549 cells; test: Immunoblot analysis monitoring KRAS levels in A549 cells; assay type: cell-based, human; conditions: immunoblot (FIG. 5A), bicalutamide 0, 20, 80 μM 3 days, TG003 50, 100, 200 μM 2 days, Go 6983 20, 40, 80 μM 2 days, NSC 45551 50, 100, 200 μM 4 days, NSC 658497 10, 20 μM 4 days
Description: as §2, with “SD. […]” for “SD.”
Relative luciferase activity A549 cells expressing an NS or AKT1 shRNA and transfected with the AR reporter gene ARR2. (D, E) Immunoblot analysis showing KRAS levels in A549 cells expressing an NS or AKT1 shRNA (D) or treated with the AKT1 inhibitor MK2206 (E). […]
In addition to canonical activation by androgens, AR can also function through several ligand-independent mechanisms, which typically involves activation of AR by phosphorylation (Weigel and Zhang 1998, J Mol Med 76:469-479). […] To address this possibility we cultured A549 cells in fetal bovine serum (FBS), charcoal stripped-FBS (CS-FBS), which removes androgens (Cao et al. 2009, Endocr Res 34:101-8; Krycer and Brown 2013, PLoS One 8:e54007), or under serum-free conditions, and monitored KRAS expression by immunoblotting. […]

CC(O)(CS(=O)(=O)c1ccc(F)cc1)C(=O)Nc1ccc(C#N)c(C(F)(F)F)c1 (stereo not drawn) [bicalutamide]
Cell proliferation [1]: reduced proliferation
Cell proliferation (A549 cells): but not KRAS-independent A549 cells
KRAS protein levels [2]: reduced KRAS protein levels in a dose-dependent manner
